Measurements from publication doi:10.1101/2020.12.16.423147.
No constants are given. Whether binding was seen depends on the method and setting. For part of these data: Binding seen in cells or lysates may run through a third protein. Some results given as binding are weak or reduced against the parent protein; the word gives no strength. Tags and fused reporters may be left off the sequences shown. Each block holds one molecule with its values, some of them ahead of it.

The chains behind the UniProt entries cited, without tags or fusion partners. Where a name states a change or a piece, a line headed by the entry shows the natural chain unless it says otherwise.
UniProt P20340: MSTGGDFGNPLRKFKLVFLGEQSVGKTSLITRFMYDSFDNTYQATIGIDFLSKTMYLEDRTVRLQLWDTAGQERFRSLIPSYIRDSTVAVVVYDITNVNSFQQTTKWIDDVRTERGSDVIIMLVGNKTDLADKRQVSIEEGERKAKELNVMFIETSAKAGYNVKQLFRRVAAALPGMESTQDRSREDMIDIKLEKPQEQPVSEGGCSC

Legend:
GFP-VPS13B-C (human) = target: T1, GFP-VPS13B-C (human) (UniProt Q7Z7G8); experiment: co-IP
T1 sequence: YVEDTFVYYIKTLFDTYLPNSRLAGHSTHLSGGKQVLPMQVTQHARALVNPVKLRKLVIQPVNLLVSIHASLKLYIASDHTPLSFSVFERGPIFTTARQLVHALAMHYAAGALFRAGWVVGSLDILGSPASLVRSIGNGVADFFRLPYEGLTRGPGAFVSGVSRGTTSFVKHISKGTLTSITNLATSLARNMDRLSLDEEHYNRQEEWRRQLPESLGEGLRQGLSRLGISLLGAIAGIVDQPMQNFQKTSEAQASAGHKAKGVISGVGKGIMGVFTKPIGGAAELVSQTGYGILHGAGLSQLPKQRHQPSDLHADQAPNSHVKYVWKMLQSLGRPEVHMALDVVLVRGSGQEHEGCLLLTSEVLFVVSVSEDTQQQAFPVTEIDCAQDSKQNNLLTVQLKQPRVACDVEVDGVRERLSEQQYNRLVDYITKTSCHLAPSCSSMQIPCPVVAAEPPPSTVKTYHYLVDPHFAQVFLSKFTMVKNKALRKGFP

GST-Rab6 Q72L (human) = GST-Rab6 Q72L (human) (UniProt P20340); experiment: pull-down
GST-Rab6 T27N (human) = GST-Rab6 T27N (human) (UniProt P20340); experiment: pull-down

- binding (GFP-VPS13B-C (human)): binds
Molecule: Halo-Rab6 (from UniProt P20340 1-208)

- binding (GST-Rab6 Q72L (human)): binds
- binding (GST-Rab6 T27N (human)): binds
B1: His-VPS13B-PH (domain or fragment, UniProt Q7Z7G8-2 3732-3997)
chain: RLGISLLGAIAGIVDQPMQNFQKTSEAQASAGHKAKGVISGVGKGIMGVFTKPIGGAAELVSQTGYGILHGAGLSQLPKQRHQPSDLHADQAPNSHVKYVWKMLQSLGRPEVHMALDVVLVRGSGQEHEGCLLLTSEVLFVVSVSEDTQQQAFPVTEIDCAQDSKQNNLLTVQLKQPRVACDVEVDGVRERLSEQQYNRLVDYITKTSCHLAPSCSSMQIPCPVVAAEPPPSTVKTYHYLVDPHFAQVFLSKFTMVKNKALRKGFP
